{
  "sequences": {"note": "By UniProt entry, the sequences of proteins in these tests, tags left out.", "UniProt P08684, whole entry, looked up": "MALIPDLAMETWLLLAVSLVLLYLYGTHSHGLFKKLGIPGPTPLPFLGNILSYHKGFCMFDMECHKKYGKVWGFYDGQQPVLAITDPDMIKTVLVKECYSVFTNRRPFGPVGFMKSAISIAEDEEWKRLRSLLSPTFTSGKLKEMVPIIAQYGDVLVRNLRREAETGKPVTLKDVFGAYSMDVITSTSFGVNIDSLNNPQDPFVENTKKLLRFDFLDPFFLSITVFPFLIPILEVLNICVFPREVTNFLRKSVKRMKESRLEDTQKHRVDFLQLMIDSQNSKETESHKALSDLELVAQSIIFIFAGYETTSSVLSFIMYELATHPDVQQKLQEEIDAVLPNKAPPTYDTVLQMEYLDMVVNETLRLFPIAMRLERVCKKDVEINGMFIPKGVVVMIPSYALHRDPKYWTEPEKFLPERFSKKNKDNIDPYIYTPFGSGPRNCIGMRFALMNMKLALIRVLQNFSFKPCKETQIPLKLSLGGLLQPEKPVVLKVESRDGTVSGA"},
  "source": "PubChem BioAssay (EPA / NIEHS)",
  "key": {"[1]": {"test": "BSK_CASM3C_SRB: Viability Assessment in the BioMAP Diversity Plus: CASM3C Assay (AID 2283050);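 further: total protein by SRB staining as cytotoxicity measure in parallel cultures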", "settings": "primary human coronary artery smooth muscle cells"}, "[2]": {"test": "CEETOX_H295R_CORTIC: CeeTox H295R High-throughput Steroidogenesis Assay for Corticosterone (CORTIC) (AID 2283437);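 further: corticosterone secreted into medium quantified by mass spectrometry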", "settings": "actives raise or lower the signal", "summary_of_the_method": "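H295R adrenal cells prestimulated 48 hours with 10 uM forskolin, then exposed 48 hours to chemical in 0.1% DMSO. Corticosterone in medium measured by HPLC-MS/MS after MTBE extraction; MTT viability in the same wells; bidirectional fit versus DMSO.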"}, "[3]": {"read-out": "Cytochrome P450 3A4 (Homo sapiens) (UniProt P08684)", "test": "LTEA_HepaRG_CYP3A4: Life Technologies and Expression Analysis (LTEA) Assay for CYP3A4 using HepaRG (AID 2283487)", "settings": "actives raise or lower the signal; mRNA level, 48 h", "summary_of_the_method": "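In a human hepatic line (HepaRG), duplicate wells were treated 48 h with up to 100 uM chemical in half-log dilutions. Endpoint: CYP3A4 mRNA induction or loss relative to 0.5% DMSO vehicle, by qRT-PCR.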"}, "[4]": {"read-out": "Heat shock 70 kDa protein 1 (HSPA1A), gene 3303", "test": "LTEA_HepaRG_HSPA1A: Life Technologies and Expression Analysis (LTEA) Assay for Heat shock 70 kDa protein 1 (HSPA1A) using HepaRG (AID 2283502)", "settings": "actives raise or lower the signal; mRNA level, 48 h", "summary_of_the_method": "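Readout is HSPA1A transcript level by microfluidic qRT-PCR, normalized to three housekeeping genes and analysed for gain or loss of signal relative to 0.5% DMSO. Human HepaRG cultures received test chemicals for 48 h at up to 100 uM.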"}, "[5]": {"read-out": "Intercellular Adhesion Molecule 1 (ICAM1), ICAM1 (gene 3383)", "test": "LTEA_HepaRG_ICAM1: Life Technologies and Expression Analysis (LTEA) Assay for Intercellular Adhesion Molecule 1 (ICAM1) using HepaRG (AID 2283507)", "settings": "actives raise or lower the signal; mRNA level, 48 h", "summary_of_the_method": "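Gain or loss of transcript in HepaRG hepatic cells is quantified by qRT-PCR after 48 h chemical exposure (up to 100 uM, half-log steps), with DMSO as baseline.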"}, "[6]": {"read-out": "Interleukin 6 Receptor (IL6R), IL6R (gene 3570)", "test": "LTEA_HepaRG_IL6R: Life Technologies and Expression Analysis (LTEA) Assay for Interleukin 6 Receptor (IL6R) using HepaRG (AID 2283510)", "settings": "actives raise or lower the signal; mRNA level, 48 h", "summary_of_the_method": "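Readout is IL6R transcript level by TaqMan qRT-PCR, normalized to three housekeeping genes and fitted bidirectionally against 0.5% DMSO controls. Human HepaRG cells received chemicals for 48 h in serum-free induction medium, highest concentration 100 uM.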"}, "[7]": {"read-out": "Keratin 19 (KRT19), KRT19 (gene 3880)", "test": "LTEA_HepaRG_KRT19: Life Technologies and Expression Analysis (LTEA) Assay for Keratin 19 (KRT19) using HepaRG (AID 2283512)", "settings": "actives raise or lower the signal; mRNA level, 48 h", "summary_of_the_method": "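Gene-expression endpoint in the human liver line HepaRG after 48 h exposure to up to 100 uM test chemical with 0.5% DMSO vehicle; KRT19 mRNA by qRT-PCR, analyzed bidirectionally versus DMSO.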"}, "[8]": {"test": "Tanguay_ZF_120hpf_AXIS_legacy: (Legacy) Oregon State University Tanguay Lab 120 Hour Post-fertilization zebrafish Assay for Body Axis Malformation (AID 2283635; active means hit-call score of the fitted dose curve at least 0.9, where 1 is the maximum;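 further: potency for an increased fraction of larvae scored with body axis malformation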)", "summary_of_the_method": "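Static 6–120 hpf chemical exposure of dechorionated wild-type 5D zebrafish, one per well at 28C; morphology endpoint scored binary at 120 hpf relative to DMSO control.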"}, "[9]": {"test": "CCTE_Simmons_CellTiterGLO_HEK293T: Viability Assessment in CCTE's Assays for Thyroperoxidase (TPO) Inhibition, Simmons Lab (AID 2283665; active means hit-call score of the fitted dose curve at least 0.9, where 1 is the maximum;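 further: actives reduce ATP signal below DMSO vehicle meaning cytotoxicity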)", "summary_of_the_method": "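HEK293T, 10 000 cells/well, DMEM + 1% FBS; 8-pt titration 5 nM–87.5 uM [final], 0.5% DMSO; 24 hr, 37C, 5% CO2; CellTiter-Glo luminescence; n=3 biological replicates.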"}, "[10]": {"test": "ACEA_AR_agonist_AUC_viability: ACEA Biosciences xCELLigence Real-Time Cell Analysis on Androgen Receptor Agonism for Viability (AID 2283775; active means hit-call score of the fitted dose curve at least 0.9, where 1 is the maximum)", "summary_of_the_method": "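Real-time impedance tracking of 22Rv1 growth, readings every 5 min for 5 h then hourly; area-under-curve viability endpoint at 80 hours, relative to DMSO. Compounds at eight concentrations, 1:4 steps, top 100 uM, n = 2.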"}, "[11]": {"test": "TOX21_TR_RXR_BLA_Agonist_Followup_viability: Viability Assessment in the Tox21 Thyroid Hormone Receptor beta Retinoid X Receptor alpha (RXRa) Agonism Beta-lactamase (BLA) Follow-Up Assay (AID 2283970; active means hit-call score of the fitted dose curve at least 0.9, where 1 is the maximum)"}, "[12]": {"test": "CCTE_Shafer_MEA_dev_bursting_electrodes_number: CCTE's Neural Network Formation Assay for Number of Bursting Electrodes, Shafer Lab (AID 2284043; active means hit-call score of the fitted dose curve at least 0.9, where 1 is the maximum)", "summary_of_the_method": "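Primary rat cortical neurons plated on 16-electrode MEA wells, exposed from day 0 with compound renewed at DIV 5 and 9. Electrodes bursting ≥1 burst per 2 min counted on days 5, 7, 9 and 12; trapezoidal AUC across days, fitted for loss versus DMSO.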"}, "[13]": {"test": "CCTE_Mundy_HCI_Cortical_Synap_Neur_Matur_NeuriteLength: CCTE's Synaptogenesis and Neurite Maturation Assay in rat cortical cells for Neurite Length, Mundy Lab (AID 2284214)", "summary_of_the_method": "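Rat cortical neurons, AraC at DIV 5; compound + media change DIV 7, end DIV 12 (288.33 h). Fix, MAP2/synaptophysin/Hoechst immunostain, automated HCI of neurite length vs DMSO.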"}, "[14]": {"test": "CCTE_Mundy_HCI_hN2_NOG_NeuronCount: CCTE's Neurite Outgrowth Assay in human hN2 cells for Neuron Count, Mundy Lab (AID 2284221; active means hit-call score of the fitted dose curve at least 0.9, where 1 is the maximum)", "summary_of_the_method": "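Read-out is the number of betaIII-tubulin-positive neurons imaged by automated high-content analysis, with DMSO as negative control.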"}, "[15]": {"test": "CCTE_Deisenroth_DEVTOX-GLR_Pluri_CellCount: Viability Assessment in CCTE's DevTox GLR-Pluri Assay Evaluation of Total Cell Counts, Deisenroth Lab (AID 2284430)", "summary_of_the_method": "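RUES2-GLR human pluripotent cells, seeded 24 h, then differentiated 48 h with two chemical exposures 24 h apart; 10-point series 1 nM - 200 uM. Fixed, nuclear-stained, imaged (5 fields/well); nuclei count as % change vs 0.2% DMSO.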"}, "[16]": {"test": "CEETOX_H295R_PROG: CeeTox H295R High-throughput Steroidogenesis Assay for Progesterone (PROG) (AID 2283442)", "settings": "actives raise or lower the signal", "summary_of_the_method": "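Adrenal H295R line, forskolin-stimulated (10 uM, 48 h) before dosing. 48 h exposure, 0.1% DMSO vehicle. Secreted progesterone by reverse-phase HPLC with ESI+ MS/MS quantification; DMSO-normalised bidirectional curve fit.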"}, "[17]": {"read-out": "Cyclin Dependent Kinase Inhibitor 1A (CDKN1A), CDKN1A (gene 1026)", "test": "LTEA_HepaRG_CDKN1A: Life Technologies and Expression Analysis (LTEA) Assay for Cyclin Dependent Kinase Inhibitor 1A (CDKN1A) using HepaRG (AID 2283450)", "settings": "actives raise or lower the signal; mRNA level, 48 h", "summary_of_the_method": "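Cryopreserved HepaRG cells were plated and cultured 48 h, then switched to serum-free induction medium. Chemicals (eight half-log concentrations, top 100 uM, 0.5% DMSO) were applied for 48 h. Lysates underwent qRT-PCR for CDKN1A with housekeeping normalization.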"}, "[18]": {"read-out": "growth arrest and DNA damage 45 (GADD45G), GADD45G (gene 10912)", "test": "LTEA_HepaRG_GADD45G: Life Technologies and Expression Analysis (LTEA) Assay for growth arrest and DNA damage 45 (GADD45G) using HepaRG (AID 2283499)", "settings": "actives raise or lower the signal; mRNA level, 48 h", "summary_of_the_method": "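Human hepatic HepaRG line treated 48 h with chemicals (eight concentrations, half-log steps from 100 uM); transcript induction or repression of GADD45G scored by qRT-PCR versus DMSO vehicle.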"}, "[19]": {"read-out": "JUN Transcription Factor, JUN (gene 3725)", "test": "LTEA_HepaRG_JUN: Life Technologies and Expression Analysis (LTEA) Assay for JUN Transcription Factor using HepaRG (AID 2283513)", "settings": "actives raise or lower the signal; mRNA level, 48 h", "summary_of_the_method": "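Cells plated 48 h, medium switched to serum-free induction medium, then dosed 48 h (100 uM top, half-log dilutions, 0.5% DMSO). RNA isolated; JUN measured by qRT-PCR against three housekeeping genes; gain or loss fitted relative to DMSO.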"}, "MYC, MYC (gene 4609)": {"read-out": "MYC, MYC (gene 4609)", "test": "LTEA_HepaRG_MYC: Life Technologies and Expression Analysis (LTEA) Assay for MYC using HepaRG (AID 2283518)", "settings": "actives raise or lower the signal; mRNA level, 48 h", "summary_of_the_method": "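Cells are thawed, plated and cultured 48 h, then treated for 48 h with test chemicals (eight half-log concentrations from 100 uM, 0.5% DMSO vehicle). RNA is isolated and MYC expression quantified by qRT-PCR against three housekeeping genes.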"}},
  "note": "For part of these data: What follows is the remainder of the data, with few or none of the hits. Results filed as inconclusive are left out. The list shows a part of the results, in another mix than the full data. Active and inactive are the calls of the source. How the source made its calls, unless noted: active means hit-call score of the fitted dose curve at least 0.9, where 1 is the maximum; inactive means score below 0.9.",
  "data": [
    {"smiles": "CC1=C(/C=C/C(C)=C/C=C/C(C)=C/C(=O)O)C(C)(C)CCC1", "values": [
      {"measurement": "outcome", "setting": "[1]", "result": "inactive"},
      {"measurement": "AC50", "setting": "[2]", "result": "active: 5 µM"},
      {"measurement": "AC50", "setting": "[3]", "result": "active: 2.87 µM"},
      {"measurement": "AC50", "setting": "[4]", "result": "active: 9.92 µM"},
      {"measurement": "AC50", "setting": "[5]", "result": "active: 9.92 µM"},
      {"measurement": "outcome", "setting": "[6]", "result": "inactive"},
      {"measurement": "outcome", "setting": "[7]", "result": "inactive"},
      {"measurement": "AC50", "setting": "[8]", "result": "active: 0.254 µM"},
      {"measurement": "AC50", "setting": "[9]", "result": "active: 23.9 µM"},
      {"measurement": "AC50", "setting": "[10]", "result": "active: 86.1 µM"},
      {"measurement": "outcome", "setting": "[11]", "result": "inactive"},
      {"measurement": "AC50", "setting": "[12]", "result": "active: 17 µM"},
      {"measurement": "outcome", "setting": "[13]", "result": "inactive"},
      {"measurement": "outcome", "setting": "[14]", "result": "inactive"},
      {"measurement": "AC50", "setting": "[15]", "result": "active: 13 µM"}
    ]},
    {"smiles": "C[C@]12C=CC(=O)C=C1CC[C@@H]1[C@@H]2C(=O)C[C@@]2(C)[C@H]1CC[C@]2(O)C(=O)CO", "values": [
      {"measurement": "outcome", "setting": "[1]", "result": "inactive"},
      {"measurement": "outcome", "setting": "[16]", "result": "inactive"},
      {"measurement": "outcome", "setting": "[17]", "result": "inactive"},
      {"measurement": "outcome", "setting": "[18]", "result": "inactive"},
      {"measurement": "outcome", "setting": "[19]", "result": "inactive"},
      {"measurement": "outcome", "setting": "MYC, MYC (gene 4609)", "result": "inactive"}
    ]}
  ]
}
